PubChem BioAssay AID1159578 | Peter MacCallum Cancer Centre, 2015
Shown is one part, drawn at random, of about 18,000 reagents. About 1,030 of them (5.7%) count as active. 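Inactive calls also include pools with fewer than 3300 nuclei, whose migration was not assessed.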 Raw values are not corrected between plates. Unmarked entries are inactive. Further read-outs or replicates are left out here. Reagent sequences are not shown.

- Screen: 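Genome-wide hunt for genes controlling movement of lymphatic endothelial cells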 (primary screen)
- System: human lymphatic endothelial cells
- Reagent: siRNA pool against human genes, 40 nM
- Timing: 48 h after transfection
- Measurement: 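Cells stained with dye and imaged after a scratch; covered wound area and nuclei counted, duplicates averaged, migration set against mock wells and turned into a robust z-score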
- Reading the numbers: migration robust z-score: higher = faster migration into the scratch; nuclei per well: higher = more cells in the well
- Rule for the call: 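Pools averaging fewer than 3300 nuclei are never called; remaining pools count as changed when migration robust z lies outside -2 to 2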
- Calls: active = migration changed; inactive = no migration change, or too few cells

Depletion of SLC22A7 gave: migration robust z-score -0.46; migration class with cell-count check migration z between -2 and 2; enough cells; nuclei per well, duplicate mean 4833. Depletion of SACK1E came out at: migration robust z-score -2.46 (active); migration class with cell-count check migration z below -2; enough cells; nuclei per well, duplicate mean 3590. Against SEPTIN10 the deposit lists migration robust z-score 0.2; migration class with cell-count check migration z between -2 and 2; enough cells; nuclei per well, duplicate mean 5276. Knock-down of ARVCF came out at: migration robust z-score 0.52; migration class with cell-count check migration z between -2 and 2; enough cells; nuclei per well, duplicate mean 5964.

Active calls (from the list above):
SACK1E | migration robust z-score = -2.46 (active); migration class with cell-count check = migration z below -2; enough cells; nuclei per well, duplicate mean = 3590

The list goes on:
With knock-down of KRTAP5-1, the screen gave migration robust z-score -1.4; migration class with cell-count check migration z between -2 and 2; enough cells; nuclei per well, duplicate mean 3634. Knock-down of PRAME gave: migration robust z-score -1.14; migration class with cell-count check migration z between -2 and 2; enough cells; nuclei per well, duplicate mean 5520. CAP1 gave migration robust z-score -0.15; migration class with cell-count check migration z between -2 and 2; enough cells; nuclei per well, duplicate mean 6772. Depletion of AXDND1 gave: migration robust z-score 0.17; migration class with cell-count check migration z between -2 and 2; enough cells; nuclei per well, duplicate mean 6846. Against IL17RA the deposit lists migration robust z-score -1.68; migration class with cell-count check migration z between -2 and 2; enough cells; nuclei per well, duplicate mean 4672. SEC14L4 gave migration robust z-score 2.8 (active); migration class with cell-count check migration z above 2; enough cells; nuclei per well, duplicate mean 5155.

PMCH scored migration robust z-score 0.72; migration class with cell-count check migration z between -2 and 2; enough cells; nuclei per well, duplicate mean 5697. After knock-down of RNF5, the screen gave migration robust z-score 1.68; migration class with cell-count check migration z between -2 and 2; enough cells; nuclei per well, duplicate mean 6186. Against ATOX1 the deposit lists migration robust z-score 0.43; migration class with cell-count check migration z between -2 and 2; enough cells; nuclei per well, duplicate mean 5508. Against CENPF, the entry reads migration robust z-score -1.1; migration class with cell-count check migration z between -2 and 2; enough cells; nuclei per well, duplicate mean 5720.
